Measured values reported in patent US20250161243A1, “MEF2 TRANSCRIPTIONAL ACTIVATORS TO TREAT NEUROLOGIC CONDITIONS” (The Scripps Research Institute, priority 2022, published 2025).

System: MEF2 transcriptional activity
Test: MEF2 transcriptional activity screen (Luciferase-MEF2 reporter in human neural progenitor cells)
Format: cell-based
Details: concentration for half-maximal activity derived from the hill equation model, read-out: qAC50

EC50: 7.81 µM
SMILES: O=C(CCCCCCC(=O)Nc1ccccc1)NO [vorinostat]
